Values from PubChem BioAssay AID1259254 (NCATS, 2017)

Test: 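Gene knock-downs that lead to re-replication, shown by excess G2 DNA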 (primary screen)
System: human HCT116 colorectal cancer cells
Knock-down reagent: single siRNA against human genes
Timing: 3 days
Measurement: 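Nuclei stained with Hoechst and imaged; cell-cycle phase assigned by DNA content; G2 share scaled per plate, non-targeting siRNA 0%, GMNN siRNA 100%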
Direction: G2 robust z-score and G2 cells, % of GMNN control: higher = more G2 cells, more excess DNA replication; raw share of cells in G2: higher = larger share of cells with G2 DNA content
Hit rule: 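Active siRNAs have a G2 robust z of 5 or more median absolute deviations over the median, which in these data means about 38% or higher of GMNN control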
This is a random part of about 59,000 reagents. Of all reagents, about 1,550 (2.6%) got an active call. 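G2 share is only a proxy for re-replication; each gene was hit by three separate siRNAs, and active genes were retested.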 Raw values vary from plate to plate and are shown uncorrected. The numbers tell different reagents against one gene apart. Not given: the amount of reagent.

| Target gene | reagent no. | G2 robust z-score | G2 cells, % of GMNN control | raw share of cells in G2 (%) | call |
| --- | --- | --- | --- | --- | --- |
| OR2T11 (olfactory receptor family 2 subfamily T member 11) | 1 | 0.868 | 9.08 | 7.6 | inactive |
| OR2T11 (olfactory receptor family 2 subfamily T member 11) | 2 | 0.213 | 4.46 | 4.52 | inactive |
| OR2T11 (olfactory receptor family 2 subfamily T member 11) | 3 | -0.491 | -0.488 | 2.4 | inactive |
| TTC8 (tetratricopeptide repeat domain 8) | 1 | -0.409 | 0.0918 | 4.52 | inactive |
| TTC8 (tetratricopeptide repeat domain 8) | 2 | 0.801 | 8.6 | 9.67 | inactive |
| TTC8 (tetratricopeptide repeat domain 8) | 3 | 0.602 | 7.2 | 8.06 | inactive |
| TACR1 (tachykinin receptor 1) | 1 | 0.346 | 5.4 | 7.77 | inactive |
| TACR1 (tachykinin receptor 1) | 2 | 1.48 | 13.4 | 9.19 | inactive |
| TACR1 (tachykinin receptor 1) | 3 | 2.48 | 20.4 | 9.53 | inactive |
| ZNF646 (zinc finger protein 646) | 1 | -0.268 | 1.08 | 3.89 | inactive |
| ZNF646 (zinc finger protein 646) | 2 | -1.38 | -6.71 | 3 | inactive |
| ZNF646 (zinc finger protein 646) | 3 | 0.326 | 5.26 | 5.54 | inactive |
| MYOM2 (myomesin 2) | 1 | -0.617 | -1.38 | 4.52 | inactive |
| MYOM2 (myomesin 2) | 2 | 0.0312 | 3.19 | 5.16 | inactive |
| MYOM2 (myomesin 2) | 3 | -0.482 | -0.422 | 3.2 | inactive |
| THOP1 (thimet oligopeptidase 1) | 1 | 1.3 | 12.1 | 9.77 | inactive |
| THOP1 (thimet oligopeptidase 1) | 2 | 0.105 | 3.71 | 6.22 | inactive |
| THOP1 (thimet oligopeptidase 1) | 3 | 1.03 | 10.2 | 7.71 | inactive |
| POC1A (POC1 centriolar protein A) | 1 | 0.393 | 5.73 | 5.3 | inactive |
| POC1A (POC1 centriolar protein A) | 2 | 5.12 | 39 | 19.1 | active |
| POC1A (POC1 centriolar protein A) | 3 | 6.71 | 50.2 | 25.7 | active |
| DMAC2L (distal membrane arm assembly component 2 like) | 1 | 3.37 | 26.7 | 14.1 | inactive |
| DMAC2L (distal membrane arm assembly component 2 like) | 2 | 0.757 | 8.3 | 7.69 | inactive |
| DMAC2L (distal membrane arm assembly component 2 like) | 3 | -0.539 | -0.826 | 2.99 | inactive |
| HEPN1 (hepatocellular carcinoma, down-regulated 1) | 1 | 0.148 | 4.01 | 5.17 | inactive |
| HEPN1 (hepatocellular carcinoma, down-regulated 1) | 2 | 0.619 | 7.32 | 6.19 | inactive |
| HEPN1 (hepatocellular carcinoma, down-regulated 1) | 3 | -0.799 | -2.65 | 2.22 | inactive |
| CCPG1 (cell cycle progression 1) | 1 | 4.17 | 32.3 | 19.9 | inactive |
| CCPG1 (cell cycle progression 1) | 2 | 3.09 | 24.7 | 14.2 | inactive |
| CCPG1 (cell cycle progression 1) | 3 | -0.997 | -4.05 | 1.93 | inactive |
| CYP1A2 (cytochrome P450 family 1 subfamily A member 2) | 1 | -0.679 | -1.81 | 3.47 | inactive |
| CYP1A2 (cytochrome P450 family 1 subfamily A member 2) | 2 | -1.28 | -6.04 | 2.81 | inactive |
| CYP1A2 (cytochrome P450 family 1 subfamily A member 2) | 3 | -1.43 | -7.1 | 2.4 | inactive |
| CMTM4 (CKLF like MARVEL transmembrane domain containing 4) | 1 | 0.857 | 8.99 | 6.84 | inactive |
| CMTM4 (CKLF like MARVEL transmembrane domain containing 4) | 2 | -0.837 | -2.92 | 2.01 | inactive |
| CMTM4 (CKLF like MARVEL transmembrane domain containing 4) | 3 | -0.698 | -1.95 | 2.39 | inactive |
| ROR1 (ROR family WNT receptor 1) | 1 | 7.82 | 58 | 24.7 | active |
| ROR1 (ROR family WNT receptor 1) | 2 | -1.01 | -4.17 | 4 | inactive |
| ROR1 (ROR family WNT receptor 1) | 3 | -1.05 | -4.44 | 2.46 | inactive |
| PRODH (proline dehydrogenase 1) | 1 | -0.434 | -0.0847 | 4.65 | inactive |
| PRODH (proline dehydrogenase 1) | 2 | 2.41 | 19.9 | 10.8 | inactive |
| PRODH (proline dehydrogenase 1) | 3 | -0.271 | 1.06 | 5.34 | inactive |
| UXS1 (UDP-glucuronate decarboxylase 1) | 1 | -0.618 | -1.38 | 4.86 | inactive |
| UXS1 (UDP-glucuronate decarboxylase 1) | 2 | 1.32 | 12.3 | 8.64 | inactive |
| UXS1 (UDP-glucuronate decarboxylase 1) | 3 | 4.71 | 36.1 | 18.2 | inactive |
| CNR1 (cannabinoid receptor 1) | 1 | -0.547 | -0.882 | 5.53 | inactive |
| CNR1 (cannabinoid receptor 1) | 2 | 3.2 | 25.5 | 13.4 | inactive |
| CNR1 (cannabinoid receptor 1) | 3 | -0.000675 | 2.96 | 4.18 | inactive |
| ZCCHC7 (zinc finger CCHC-type containing 7) | 1 | 2.35 | 19.5 | 10.6 | inactive |
| ZCCHC7 (zinc finger CCHC-type containing 7) | 2 | -0.29 | 0.93 | 3.73 | inactive |
| ZCCHC7 (zinc finger CCHC-type containing 7) | 3 | -0.587 | -1.16 | 2.05 | inactive |
| LINC01257 (long independently transcribed non-coding RNA 1257) | 1 | 1.34 | 12.4 | 7.03 | inactive |
| LINC01257 (long independently transcribed non-coding RNA 1257) | 2 | -0.69 | -1.89 | 1.27 | inactive |
| LINC01257 (long independently transcribed non-coding RNA 1257) | 3 | -0.403 | 0.131 | 4.14 | inactive |
| PRKACB (protein kinase cAMP-activated catalytic subunit beta) | 1 | -0.98 | -3.93 | 4.31 | inactive |
| PRKACB (protein kinase cAMP-activated catalytic subunit beta) | 2 | -1 | -4.08 | 4.04 | inactive |
| PRKACB (protein kinase cAMP-activated catalytic subunit beta) | 3 | 1.91 | 16.4 | 9.8 | inactive |
| TOLLIP (toll interacting protein) | 1 | -0.549 | -0.894 | 3.28 | inactive |
| TOLLIP (toll interacting protein) | 2 | 0.856 | 8.99 | 8.06 | inactive |
| TOLLIP (toll interacting protein) | 3 | -0.18 | 1.7 | 3.75 | inactive |
| PAQR8 (progestin and adipoQ receptor family member 8) | 1 | 1.27 | 11.9 | 10.1 | inactive |
| PAQR8 (progestin and adipoQ receptor family member 8) | 2 | 4.36 | 33.6 | 16.3 | inactive |
| PAQR8 (progestin and adipoQ receptor family member 8) | 3 | 0.854 | 8.98 | 6.02 | inactive |
| FERRY3 (FERRY endosomal RAB5 effector complex subunit 3) | 1 | 0.493 | 6.44 | 6.88 | inactive |
| FERRY3 (FERRY endosomal RAB5 effector complex subunit 3) | 2 | -0.413 | 0.0623 | 4.49 | inactive |
| FERRY3 (FERRY endosomal RAB5 effector complex subunit 3) | 3 | -0.912 | -3.45 | 1.94 | inactive |
| TBC1D14 (TBC1 domain family member 14) | 1 | 0.83 | 8.81 | 7.82 | inactive |
| TBC1D14 (TBC1 domain family member 14) | 2 | -1.12 | -4.91 | 2.11 | inactive |
| TBC1D14 (TBC1 domain family member 14) | 3 | 0.526 | 6.67 | 5.14 | inactive |

Called active (from the list above):
| Target gene | reagent no. | G2 robust z-score | G2 cells, % of GMNN control | raw share of cells in G2 (%) | call |
| --- | --- | --- | --- | --- | --- |
| POC1A (POC1 centriolar protein A) | 2 | 5.12 | 39 | 19.1 | active |
| POC1A (POC1 centriolar protein A) | 3 | 6.71 | 50.2 | 25.7 | active |
| ROR1 (ROR family WNT receptor 1) | 1 | 7.82 | 58 | 24.7 | active |
